Data source: PubChem BioAssay AID1053208 (Peter MacCallum Cancer Centre, 2014)

- Purpose: 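Find knock-downs that sensitise mouse osteosarcoma cells to doxorubicin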 (primary screen)
- Cells: mouse osteosarcoma cells, early-passage culture from an engineered mouse model of fibroblastic bone tumour
- Reagent: siRNA pool against mouse genes, 40 nM
- Duration: about 120 h (48 h before drug, then 72 h with drug)
- Conditions: doxorubicin 100 nM for 72 h, roughly 30-40% inhibitory dose
- Measurement: 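Luminescent ATP signal taken as viability with or without 100 nM doxorubicin for 72 h; mean of two wells set against non-targeting siRNA and turned into robust z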
- Scale: viability z-score with doxorubicin: higher = more viable cells under doxorubicin; viability z-score without drug: higher = more viable cells with knock-down alone
- Active means: 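Called active if knock-down leaves viability unchanged without drug (z within -2 to 2) but lowers it with doxorubicin (z at or under -2)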
The whole screen tested about 17,000 reagents; this is an unselected part. In the full data, 788 (4.7%) got an active call. 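Calls rest on z-score classes alone; an extra cut-off of viability at most 70% of control was not applied to them.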 Entries without a mark were called inactive. Further read-outs or replicates are left out here.

Rnf215 [SID152338811] | combined z-score class = no change with or without drug; viability z-score with doxorubicin = -0.67; viability z-score without drug = -0.51
Nop9 [SID152320973] | combined z-score class = no change with or without drug; viability z-score with doxorubicin = -1.8; viability z-score without drug = -0.51
Il6 [SID152317279] | combined z-score class = no change with or without drug; viability z-score with doxorubicin = 0.79; viability z-score without drug = 0.34
Pop7 [SID152313565] | combined z-score class = no change with or without drug; viability z-score with doxorubicin = 0.9; viability z-score without drug = 0.84
Hsd17b13 [SID152342402] | combined z-score class = no change with or without drug; viability z-score with doxorubicin = 0.22; viability z-score without drug = -0.17
Or51g1 [SID152307118] | combined z-score class = no change with or without drug; viability z-score with doxorubicin = -0.45; viability z-score without drug = -1.52
Or2d4 [SID152306976] | combined z-score class = no change with or without drug; viability z-score with doxorubicin = -0.9; viability z-score without drug = -0.17
Zwint [SID152311270] | combined z-score class = no change with or without drug; viability z-score with doxorubicin = -0.22; viability z-score without drug = -0.84
Psap [SID152260332] | combined z-score class = no change with or without drug; viability z-score with doxorubicin = 0.45; viability z-score without drug = 0.34
Ywhae [SID152333416] | combined z-score class = no change with or without drug; viability z-score with doxorubicin = -0.79; viability z-score without drug = -0.84
Ccl2 [SID152325093] | combined z-score class = no change with or without drug; viability z-score with doxorubicin = -0.34; viability z-score without drug = 0.17
Ess2 [SID152292780] | combined z-score class = no change with or without drug; viability z-score with doxorubicin = -1.8; viability z-score without drug = 0
Mrps7 [SID152331330] | combined z-score class = no change with or without drug; viability z-score with doxorubicin = 0.22; viability z-score without drug = -1.85
Sim2 [SID152298770] | combined z-score class = no change with or without drug; viability z-score with doxorubicin = 0; viability z-score without drug = -0.51
Rasl10a [SID152335329] | combined z-score class = no change with or without drug; viability z-score with doxorubicin = -0.56; viability z-score without drug = 0.84
Ccnd2 [SID152319051] | combined z-score class = no change with or without drug; viability z-score with doxorubicin = -0.22; viability z-score without drug = 0.17
Slc26a10 [SID152306692] | combined z-score class = low cell count with doxorubicin only (active); viability z-score with doxorubicin = -2.7; viability z-score without drug = -1.52
Ngrn [SID152281994] | combined z-score class = no change with or without drug; viability z-score with doxorubicin = 1.12; viability z-score without drug = 1.18
Larp1b [SID152310137] | combined z-score class = no change with or without drug; viability z-score with doxorubicin = -0.45; viability z-score without drug = -0.34
Acot13 [SID152329744] | combined z-score class = no change with or without drug; viability z-score with doxorubicin = 0.11; viability z-score without drug = 0.67
Sf3b4 [SID152318866] | combined z-score class = low cell count with doxorubicin only (active); viability z-score with doxorubicin = -3.48; viability z-score without drug = 0
Miox [SID152293364] | combined z-score class = no change with or without drug; viability z-score with doxorubicin = 0.67; viability z-score without drug = -0.17
Slc8a2 [SID152332136] | combined z-score class = no change with or without drug; viability z-score with doxorubicin = 0; viability z-score without drug = 0.17
Elmo1 [SID152343107] | combined z-score class = no change with or without drug; viability z-score with doxorubicin = 0.22; viability z-score without drug = 0.17
Kif5c [SID152319357] | combined z-score class = no change with or without drug; viability z-score with doxorubicin = -0.11; viability z-score without drug = -1.18
Gkn2 [SID152336418] | combined z-score class = no change with or without drug; viability z-score with doxorubicin = 0; viability z-score without drug = 1.52
Dpep3 [SID152262017] | combined z-score class = no change with or without drug; viability z-score with doxorubicin = 0.9; viability z-score without drug = -0.17
Ambra1 [SID152288428] | combined z-score class = no change with or without drug; viability z-score with doxorubicin = -0.22; viability z-score without drug = 0.34

Already shown: entries from further up.
Sim2 [SID152298770] | combined z-score class = no change with or without drug; viability z-score with doxorubicin = 0; viability z-score without drug = -0.51
Rasl10a [SID152335329] | combined z-score class = no change with or without drug; viability z-score with doxorubicin = -0.56; viability z-score without drug = 0.84
Ccnd2 [SID152319051] | combined z-score class = no change with or without drug; viability z-score with doxorubicin = -0.22; viability z-score without drug = 0.17
Slc26a10 [SID152306692] | combined z-score class = low cell count with doxorubicin only (active); viability z-score with doxorubicin = -2.7; viability z-score without drug = -1.52
